Publication doi:10.1101/2020.01.29.925610
No constants are given. Whether binding was seen depends on the method and setting. Binding calls can cover weak binding; strength is not graded here. For part of these data: Sequences can lack the tags named with a protein.

T1: GST-IFT38 (UniProt Q96AJ1)
T1 sequence: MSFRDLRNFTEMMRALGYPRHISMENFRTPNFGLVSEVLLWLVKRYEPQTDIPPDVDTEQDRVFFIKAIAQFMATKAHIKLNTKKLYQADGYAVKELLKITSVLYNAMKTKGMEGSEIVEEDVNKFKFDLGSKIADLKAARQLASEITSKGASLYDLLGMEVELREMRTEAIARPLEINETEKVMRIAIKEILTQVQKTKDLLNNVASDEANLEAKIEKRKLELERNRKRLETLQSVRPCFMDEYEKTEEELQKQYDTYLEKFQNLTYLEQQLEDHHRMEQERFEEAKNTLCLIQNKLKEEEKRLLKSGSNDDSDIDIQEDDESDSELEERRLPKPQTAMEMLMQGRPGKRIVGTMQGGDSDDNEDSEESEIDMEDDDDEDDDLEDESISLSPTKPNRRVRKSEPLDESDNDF

T2: GST-IFT38^Ctail (aa 329-413) (UniProt Q96AJ1)
T2 sequence: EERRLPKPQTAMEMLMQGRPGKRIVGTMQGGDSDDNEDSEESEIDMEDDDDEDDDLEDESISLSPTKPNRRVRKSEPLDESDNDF


Tests used:
GST-IFT38 = target: T1, GST-IFT38; assay: pull-down
[1] = target: T2, GST-IFT38^Ctail (aa 329-413); assay: pull-down
[2] = target: BBS1 (subunit of the bovine BBSome) (bovine); assay: cryo-EM structure
BBSome (bovine) = assay: cryo-EM structure
[3] = target: BBS7 (subunit of the bovine BBSome) (bovine); assay: cryo-EM structure

Molecule	binding (GST-IFT38)	binding [1]	binding [2]	binding (BBSome (bovine))	binding [3]
BBSome (bovine) (complex)	binds	binds			
ARL6^GTP (full-length ARL6 incubated with GTP) (enzyme, UniProt Q0IIM2 1-186) MGLLDRLSGLLGLKKKEVHVLCLGLDNSGKTTIINKLKPSNAQSQDIVPTIGFSIQKFKSSSLSFTVFDMSGQGRYRNLWEHYYKEGQAIIFVIDSSDKLRMVVAKEELRTLLNHPDIKHRRIPILFFANKMDLRDALTSVKVSQLLCLEDIKDKPWHICASDAIKGEGLQEGVDWLQDQIQSVKT			binds	binds	binds
BBS4 (subunit of the bovine BBSome) (protein, UniProt Q1JQ97 1-519) MAEEKLSARTQLPVSAESQKPVLKKAPEFPILEKQNWLIHLYYIQKDYEACKAVIKEQLQETHGLCEYAIYVQALIFRLEGNIQESLRLFQMCAFLSPQCADNLKQVARSLFLLGKHKAAIEVYNEAAKLNQKDWEICHNLGVCYIYLKQFDKAQDQLHNALHLNRHDLTYIMLGKIFLLKGDLDKAIEIYKKAVEFSPENTELLTTLGLLYLQLGIYQKAFEHLGNTLTYDPTNYKAILAAGSMMQTHGDFDVALTKYKVVACAVIESPPLWNNIGMCFFGKKKYVAAISCLKRANYLAPLDWKILYNLGLVHLTMQQYASAFHFLSAAINFQPKMGELYMLLAVALTNLEDSENAKRAYEEAVRLDKCNPLVNLNYAVLLYNQGEKRDALAQYQEMEKKVNLLKYSSSLEFDPEMVEVAQKLGAALQVGEALVWTKPVKDPKSKHQTASTSKAAGFQQPLGSNQALGQAMSSAATCRKLSSGAGGTSQLTKPPSLPLEPEPTVEAQPTEASAQTREK			binds		
